# Reference: the supplement of paper PMC9135407
# Several values for one entry are separate records, joined by “and”; a condition that tells them apart may be missing. Equal entries are not always repeated. Structures can show the parent of a compound that is named as a salt. ± gives the standard deviation of the averaged measurements. Some of the results follow. Plates or batches differ in their baseline, so values are only roughly comparable.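 Assay uses culture-activated primary human stellate myofibroblasts; lipid droplet recovery indicates inactivation. Measured: proportion of Hoechst-counted cells over a plate-specific Bodipy cutoff, duplicate wells, DMSO and nortriptyline as per-plate negative and positive controls. A hit scores, control-normalized, above the plate's top-tenth-percentile nortriptyline wells or ranks among its three best wells. Final well concentrations not reported.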
# Test system: primary human hepatic stellate cells (donor 1)
# Experiment: percent Bodipy-positive cells; higher = more lipid droplet accumulation
# Settings: 48 h
# [1] = library stock concentration: 3.33 mM
# [2] = library stock concentration: 10 mM
# [3] = library stock concentration: 80 uM
# [4] = library stock concentration: 400 uM
# [5] = library stock concentration: 2 mM
# [6] = library stock concentration: 1 mM
# [7] = library stock concentration: 7.9 mM
structure (smiles),measurement,setting,value
NS(=O)(=O)c1cc(Cl)c(Cl)c(S(N)(=O)=O)c1 [Dichlorphenamide],percent Bodipy-positive cells,,6.47 ± 2.8%
same,percent Bodipy-positive cells,[1],13.5 ± 1.6%
same,percent Bodipy-positive cells,[2],16.2 ± 1.7%
C/C(=C\C(=O)Nc1ccccc1C(=O)O)c1ccc2ccccc2c1,percent Bodipy-positive cells,[1],7.25 ± 0.69%
same,percent Bodipy-positive cells,[2],11.7 ± 0.02%
O=C(c1ccc(/C=C/c2n[nH]c3ccccc23)cc1)N1CCNCC1,percent Bodipy-positive cells,[3],9.54 ± 0.89%
same,percent Bodipy-positive cells,[4],9.1 ± 7%
same,percent Bodipy-positive cells,[5],12.7 ± 1.6%
same,percent Bodipy-positive cells,[1],31.9 ± 2.8%
same,percent Bodipy-positive cells,[2],94.7 ± 2.8%
Cc1cc(Cl)ccc1OCCCC(=O)NO [Droxinostat],percent Bodipy-positive cells,[1],6.27 ± 3.7%
same,percent Bodipy-positive cells,[2],26.4% and 22%
O=C(NCCN1CCOCC1)c1ccc(Cl)cc1,percent Bodipy-positive cells,[1],28.2 ± 12%
same,percent Bodipy-positive cells,[2],11 ± 2.6%
O=C(NCCN1CCOCC1)c1ccc(Cl)cc1 [4-Chloro-N-(2-morpholin-4-yl-ethyl)-benzamide],percent Bodipy-positive cells,[2],12.9 ± 9.2%
O=C(NCCN1CCOCC1)c1ccc(Cl)cc1 [Moclobemide],percent Bodipy-positive cells,,22.3 ± 1.1%
same,percent Bodipy-positive cells,[2],27.7 ± 2.9%
CNC(=O)c1ccc(Nc2cc(Nc3ccccc3S(=O)(=O)C(C)C)c3cc[nH]c3n2)nc1,percent Bodipy-positive cells,[3],16.7 ± 1.8%
same,percent Bodipy-positive cells,[4],8.34 ± 0.68%
same,percent Bodipy-positive cells,[5],5.61 ± 2%
same,percent Bodipy-positive cells,[2],11.7 ± 0.51%
Cc1ccc(-n2sc(=O)n(Cc3ccc(F)cc3)c2=O)cc1,percent Bodipy-positive cells,[1],30.5 ± 1.7%
same,percent Bodipy-positive cells,[2],87.1 ± 2%
Cl.O[C@H](CNC[C@@H](O)[C@H]1CCc2cc(F)ccc2O1)[C@@H]1CCc2cc(F)ccc2O1 [Nebivolol hydrochloride],percent Bodipy-positive cells,[2],84.9 ± 0.97%
CN(C)CCCSC(=N)N [Dimaprit dihydrochloride],percent Bodipy-positive cells,,8.33 ± 5.9%
same,percent Bodipy-positive cells,[2],6.6 ± 1.3%
CN(C)CCOc1ccc(-c2nc(-c3ccncc3)c(-c3ccc4c(c3)CC/C4=N\O)[nH]2)cc1,percent Bodipy-positive cells,[3],22.5 ± 6.2%
same,percent Bodipy-positive cells,[4],35.8% and 54%
same,percent Bodipy-positive cells,[2],87.5% and 98.3% and 100%
NCCNCCNCCN [Trientine hydrochloride],percent Bodipy-positive cells,library stock concentration: 9.1 mM,10.9 ± 5%
CCCC(CCC)C(=O)O[C@H]1C[C@H]2CC[C@@H](C1)[N+]2(C)C [Anisotropine methyl bromide],percent Bodipy-positive cells,[2],21.5 ± 3.5%
Cc1onc(-c2c(F)cccc2Cl)c1C(=O)N[C@@H]1C(=O)N2[C@@H]1SC(C)(C)[C@@H]2C(=O)O [Flucloxacillin sodium],percent Bodipy-positive cells,,9.84 ± 2.7%
C=CCNC(=O)c1cc([N+](=O)[O-])cc2c(=O)[nH]c(Nc3ccc(Cl)c(Cl)c3)nc12,percent Bodipy-positive cells,[2],5.96 ± 0.71%
C[C@H](Cc1cc2c(c(C(N)=O)c1)N(CCCO)CC2)NCCOc1ccccc1OCC(F)(F)F [Silodosin],percent Bodipy-positive cells,[1],13.9 ± 6.2%
same,percent Bodipy-positive cells,[2],29.1 ± 5%
CN1CCN(Cc2ccc(-c3cnc4[nH]cc(-c5ccc6[nH]ccc6c5)c4c3)cc2)CC1,percent Bodipy-positive cells,[5],97 ± 2.4%
CN1[C@@H]2CC[C@H]1CC(OC(=O)c1c[nH]c3ccccc13)C2 (stereo partly specified) [3-Tropanyl-indole-3-carboxylate hydrochloride],percent Bodipy-positive cells,[2],67.6 ± 1.4%
CCCCCCCCCCCCCCCCCCOCC(COP(=O)([O-])OCC[N+](C)(C)C)OC (stereo unspecified),percent Bodipy-positive cells,[2],84.7 ± 14%
CC(C)c1ccc2c(c1)CC[C@H]1[C@](C)(CN)CCC[C@]21C.Cl [Leelamine (hydrochloride)],percent Bodipy-positive cells,[6],33.9 ± 2.2%
CC[C@]1(O)C[C@H]2CN(CCc3c([nH]c4ccccc34)[C@@](C(=O)OC)(c3cc4c(cc3OC)N(C)[C@H]3[C@@](O)(C(=O)OC)[C@H](OC(C)=O)[C@]5(CC)C=CCN6CC[C@]43[C@@H]65)C2)C1.O=S(=O)(O)O [Vinblastine sulfate],percent Bodipy-positive cells,[2],96.7 ± 1.4%
CCCCC[C@H](O)/C=C/[C@@H]1[C@@H](C/C=C/CCCC(=O)O)[C@H](O)C[C@H]1O [5-trans Prostaglandin F2.beta.],percent Bodipy-positive cells,[6],13.4 ± 0.77%
COc1cc(C(C)=O)ccc1OCCCN1CCC(c2noc3cc(F)ccc23)CC1 [Iloperidone],percent Bodipy-positive cells,[1],19.3 ± 2.2%
same,percent Bodipy-positive cells,[2],64.5 ± 4.3%
CCOC(=O)[C@H](CCc1ccccc1)N[C@H]1CCCN2CCC[C@@H](C(=O)O)N2C1=O [Cilazapril Monohydrate],percent Bodipy-positive cells,[1],12.2 ± 5.6%
same,percent Bodipy-positive cells,[2],35 ± 17%
CCCC1O[C@@H]2C[C@H]3[C@@H]4CCC5=CC(=O)C=C[C@]5(C)[C@H]4[C@@H](O)C[C@]3(C)[C@]2(C(=O)CO)O1 (stereo partly specified) [Budesonide],percent Bodipy-positive cells,,17.67 ± 0.12%
same,percent Bodipy-positive cells,[1],8.76 ± 1.7%
CCCC1O[C@@H]2C[C@H]3[C@@H]4CCC5=CC(=O)C=C[C@]5(C)[C@H]4[C@@H](O)C[C@]3(C)[C@]2(C(=O)CO)O1 (stereo partly specified),percent Bodipy-positive cells,[2],20.9 ± 4%
"NCCC1CCCC(CCN)N1 (stereo unspecified) [MDL 26,630 trihydrochloride]",percent Bodipy-positive cells,[2],32.6 ± 12%
CC(C)n1nnc2cc(C(=O)O)ccc21,percent Bodipy-positive cells,[2],7.26 ± 0.41%
Fc1ccc([C@@H]2CCNC[C@H]2COc2ccc3c(c2)OCO3)cc1.O=C(O)/C=C\C(=O)O [Paroxetine],percent Bodipy-positive cells,[2],99.27 ± 0.23%
C[C@H](NC(=O)C(C#N)=Cc1cccc(Br)n1)c1ccccc1,percent Bodipy-positive cells,[1],89.1 ± 2.3%
COc1cc(C(O)CO)ccc1OS(=O)(=O)O (stereo unspecified) [MHPG sulfate potassium],percent Bodipy-positive cells,[2],43.7 ± 1.3%
c1cc(-c2cnn3cc(-c4ccc(N5CCNCC5)cc4)cnc23)c2cccnc2c1,percent Bodipy-positive cells,[1],100%
same,percent Bodipy-positive cells,[2],91.9 ± 5.3%
CC(C(=O)O)c1cccc(C(=O)c2ccccc2)c1 (stereo unspecified) [Ketoprofen (s)],percent Bodipy-positive cells,[7],7.97 ± 2.2%
CC(C(=O)O)c1cccc(C(=O)c2ccccc2)c1 (stereo unspecified) [Ketoprofen],percent Bodipy-positive cells,,32.2 ± 4.5%
same,percent Bodipy-positive cells,[6],10.4 ± 2.3%
same,percent Bodipy-positive cells,[1],5.85 ± 3.1%
same,percent Bodipy-positive cells,[7],8.88% and 16.9%
same,percent Bodipy-positive cells,[2],12.2% and 11.4% and 24.2%
C=C1CC2(O)OC3(CC2C(C)C)C(C)CCC13 (stereo unspecified) [Curcumol],percent Bodipy-positive cells,[1],6.37 ± 2.3%
same,percent Bodipy-positive cells,[2],9.15 ± 3.8%
O=C(O)Cc1ccc(OCCNC[C@H](O)c2ccccc2)cc1 [ZD 2079 hydrochloride],percent Bodipy-positive cells,[2],7.68 ± 4.4%
CC(C1=C(CCN(C)C)Cc2ccccc21)c1ccccn1 (stereo in doubt) [(S)-(+)-Dimethindene maleate],percent Bodipy-positive cells,[2],25.7 ± 8.3%
Cc1[nH]c(/C=C2\C(=O)Nc3ccc(S(=O)(=O)Cc4c(Cl)cccc4Cl)cc32)c(C)c1C(=O)N1CCC[C@@H]1CN1CCCC1,percent Bodipy-positive cells,[3],99.84 ± 0.23%
same,percent Bodipy-positive cells,[4],100%
same,percent Bodipy-positive cells,[5],100%
CCCCN(Cc1ccc(C(=O)NO)cc1)C(=O)Nc1ccccc1 [Nexturastat A],percent Bodipy-positive cells,[1],37.3 ± 11%
same,percent Bodipy-positive cells,[2],58.4 ± 7.1%
COC(=O)N[C@H](C(=O)N1CCC[C@H]1c1ncc(-c2ccc(-c3ccc(-c4cnc([C@@H]5CCCN5C(=O)[C@@H](NC(=O)OC)C(C)C)[nH]4)cc3)cc2)[nH]1)C(C)C,percent Bodipy-positive cells,[1],33.6 ± 0.97%
COc1cc(N2CCC(N3CCN(C)CC3)CC2)ccc1Nc1ncc(Cl)c(-c2c[nH]c3ccccc23)n1,percent Bodipy-positive cells,[5],64.5 ± 6.5%
same,percent Bodipy-positive cells,[2],74 ± 5.2%
O=C1O/C(=C/Br)CCC1c1cccc2ccccc12 (stereo unspecified) [Bromoenol lactone],percent Bodipy-positive cells,[6],10.3 ± 4.3%
Cc1cc(C)c2c(c1)[C@@H](N(Cc1cc(C(F)(F)F)cc(C(F)(F)F)c1)c1nnn(C)n1)CCCN2C[C@H]1CC[C@H](C(=O)O)CC1,percent Bodipy-positive cells,[1],7.92 ± 3.7%
same,percent Bodipy-positive cells,[2],13.2 ± 0.76%

# Fetched one by one from the list above, 5 records:
structure (smiles),measurement,setting,value
Cc1[nH]c(/C=C2\C(=O)Nc3ccc(S(=O)(=O)Cc4c(Cl)cccc4Cl)cc32)c(C)c1C(=O)N1CCC[C@@H]1CN1CCCC1,percent Bodipy-positive cells,[4],100%
CCCC1O[C@@H]2C[C@H]3[C@@H]4CCC5=CC(=O)C=C[C@]5(C)[C@H]4[C@@H](O)C[C@]3(C)[C@]2(C(=O)CO)O1 (stereo partly specified) [Budesonide],percent Bodipy-positive cells,,17.67 ± 0.12%
C[C@H](NC(=O)C(C#N)=Cc1cccc(Br)n1)c1ccccc1,percent Bodipy-positive cells,[1],89.1 ± 2.3%
CCOC(=O)[C@H](CCc1ccccc1)N[C@H]1CCCN2CCC[C@@H](C(=O)O)N2C1=O [Cilazapril Monohydrate],percent Bodipy-positive cells,[2],35 ± 17%
C=C1CC2(O)OC3(CC2C(C)C)C(C)CCC13 (stereo unspecified) [Curcumol],percent Bodipy-positive cells,[1],6.37 ± 2.3%
